## Screening data, single-dose tests

The chains behind the UniProt entries cited, without tags or fusion partners.
UniProt I6X8D2, whole entry: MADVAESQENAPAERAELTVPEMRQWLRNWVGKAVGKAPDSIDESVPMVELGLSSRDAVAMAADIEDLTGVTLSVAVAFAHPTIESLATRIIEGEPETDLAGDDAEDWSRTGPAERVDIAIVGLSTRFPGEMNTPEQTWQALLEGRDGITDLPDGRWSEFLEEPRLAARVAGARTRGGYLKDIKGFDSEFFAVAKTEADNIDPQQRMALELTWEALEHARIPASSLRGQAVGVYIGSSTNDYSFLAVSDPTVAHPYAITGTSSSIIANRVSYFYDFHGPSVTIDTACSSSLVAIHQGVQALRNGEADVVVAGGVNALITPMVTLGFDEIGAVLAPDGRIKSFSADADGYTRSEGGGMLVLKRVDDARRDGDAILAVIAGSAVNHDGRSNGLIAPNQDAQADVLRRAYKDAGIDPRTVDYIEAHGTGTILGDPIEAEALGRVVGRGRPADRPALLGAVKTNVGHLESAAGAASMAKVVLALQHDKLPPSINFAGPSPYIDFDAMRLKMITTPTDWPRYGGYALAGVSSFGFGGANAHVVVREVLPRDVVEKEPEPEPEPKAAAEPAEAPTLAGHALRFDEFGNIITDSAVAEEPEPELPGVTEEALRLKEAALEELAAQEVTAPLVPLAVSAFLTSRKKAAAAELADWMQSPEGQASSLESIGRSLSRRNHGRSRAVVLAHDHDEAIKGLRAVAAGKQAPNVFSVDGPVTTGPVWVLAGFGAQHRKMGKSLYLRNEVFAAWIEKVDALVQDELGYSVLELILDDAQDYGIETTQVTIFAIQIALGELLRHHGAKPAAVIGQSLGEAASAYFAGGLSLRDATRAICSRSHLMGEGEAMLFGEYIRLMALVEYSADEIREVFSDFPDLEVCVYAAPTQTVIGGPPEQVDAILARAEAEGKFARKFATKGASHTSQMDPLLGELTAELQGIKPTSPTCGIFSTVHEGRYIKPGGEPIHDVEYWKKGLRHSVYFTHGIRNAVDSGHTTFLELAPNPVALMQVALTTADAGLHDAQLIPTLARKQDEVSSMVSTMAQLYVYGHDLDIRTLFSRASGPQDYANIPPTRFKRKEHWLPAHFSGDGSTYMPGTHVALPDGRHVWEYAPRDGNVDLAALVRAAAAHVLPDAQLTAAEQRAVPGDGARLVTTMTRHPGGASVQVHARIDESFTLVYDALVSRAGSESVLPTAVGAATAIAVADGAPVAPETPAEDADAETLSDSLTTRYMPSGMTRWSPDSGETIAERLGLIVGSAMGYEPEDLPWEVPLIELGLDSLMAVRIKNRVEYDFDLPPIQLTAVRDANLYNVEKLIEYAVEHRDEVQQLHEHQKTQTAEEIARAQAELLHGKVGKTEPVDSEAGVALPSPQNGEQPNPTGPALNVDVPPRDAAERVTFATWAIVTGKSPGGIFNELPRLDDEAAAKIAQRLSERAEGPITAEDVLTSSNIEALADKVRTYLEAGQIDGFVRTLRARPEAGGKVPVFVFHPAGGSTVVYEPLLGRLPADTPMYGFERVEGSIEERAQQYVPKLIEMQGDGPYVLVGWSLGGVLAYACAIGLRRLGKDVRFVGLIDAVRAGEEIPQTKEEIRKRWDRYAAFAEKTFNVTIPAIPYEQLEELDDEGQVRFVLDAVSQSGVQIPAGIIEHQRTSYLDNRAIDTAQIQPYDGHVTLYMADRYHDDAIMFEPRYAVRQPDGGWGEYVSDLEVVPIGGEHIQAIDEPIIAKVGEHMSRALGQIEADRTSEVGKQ
UniProt P9WNZ1, whole entry: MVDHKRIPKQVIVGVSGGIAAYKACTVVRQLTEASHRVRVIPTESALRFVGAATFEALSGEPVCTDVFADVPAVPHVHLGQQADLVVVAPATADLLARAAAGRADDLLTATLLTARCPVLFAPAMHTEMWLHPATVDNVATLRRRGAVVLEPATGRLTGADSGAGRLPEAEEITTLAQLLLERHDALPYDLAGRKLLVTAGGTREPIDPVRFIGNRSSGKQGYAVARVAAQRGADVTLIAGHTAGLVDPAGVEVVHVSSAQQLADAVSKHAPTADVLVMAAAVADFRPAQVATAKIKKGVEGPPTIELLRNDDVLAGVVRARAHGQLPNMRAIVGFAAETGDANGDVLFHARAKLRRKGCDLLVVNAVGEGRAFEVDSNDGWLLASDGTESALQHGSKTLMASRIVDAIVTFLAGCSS
UniProt P9WPC5, whole entry: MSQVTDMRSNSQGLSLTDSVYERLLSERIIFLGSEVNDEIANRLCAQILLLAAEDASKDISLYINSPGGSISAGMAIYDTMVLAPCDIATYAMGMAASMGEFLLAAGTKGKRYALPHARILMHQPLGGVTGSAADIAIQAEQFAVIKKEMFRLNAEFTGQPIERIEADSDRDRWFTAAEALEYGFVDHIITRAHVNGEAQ
UniProt P9WPC3, whole entry partner: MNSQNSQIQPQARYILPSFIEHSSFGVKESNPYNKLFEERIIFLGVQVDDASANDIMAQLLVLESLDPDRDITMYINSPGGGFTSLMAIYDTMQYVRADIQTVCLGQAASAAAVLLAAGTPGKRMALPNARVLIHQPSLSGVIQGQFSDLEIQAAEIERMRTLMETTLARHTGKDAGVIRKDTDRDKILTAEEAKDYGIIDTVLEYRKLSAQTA
UniProt P9WFT3, whole entry: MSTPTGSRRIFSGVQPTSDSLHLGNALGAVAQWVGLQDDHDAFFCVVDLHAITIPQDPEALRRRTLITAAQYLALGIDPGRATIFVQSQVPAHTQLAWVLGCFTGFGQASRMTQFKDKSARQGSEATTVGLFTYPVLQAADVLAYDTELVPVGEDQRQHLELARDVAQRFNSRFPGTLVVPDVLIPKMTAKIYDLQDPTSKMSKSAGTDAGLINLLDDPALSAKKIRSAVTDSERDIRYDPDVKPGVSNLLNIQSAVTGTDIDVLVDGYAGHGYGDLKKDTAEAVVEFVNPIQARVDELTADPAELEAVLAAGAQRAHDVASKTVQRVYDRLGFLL

Pks13 thioesterase: 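Enzyme assay of the thioesterase domain of polyketide synthase 13; the read-out is not stated. Target: Polyketide synthase Pks13, Mycobacterium tuberculosis (UniProt I6X8D2). Concentration: 30 µM. Higher reads as stronger inhibition (inferred from which compounds were picked for retests). Size under these conditions: about 67,000 compounds, about 300 of them at 50% or above in at least one test.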
Toxoplasma: 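Assay of Toxoplasma gondii numbers, read through their beta-galactosidase reporter with a colour substrate. Tested at 10 µM. The record gives no direction; the compounds picked for IC50 retests had high values, so higher reads as fewer parasites. About 67,000 compounds were tested under these conditions; 0.38% (about 260) showed 50% or more at least once.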
CoaBC: 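Coenzyme A biosynthesis protein CoaBC, Mycobacterium tuberculosis (UniProt P9WNZ1). Enzyme assay of CoaBC with a phosphate dye (Biomol Green) read at 650 nm. Compounds at 30 µM. Direction is inferred from only a few compounds that gave an IC50; most scored high, so higher reads as stronger inhibition. Most strong results did not repeat in a second test. Of about 67,000 compounds tested this way, about 40 (0.06%) reached 50% or more in at least one test.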
ClpP1P2: 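ClpP1P2, Mycobacterium tuberculosis (UniProt P9WPC5 and UniProt P9WPC3). Protease assay of ClpP1P2, read by the AMC dye that it sets free. Tested at 50 µM. Higher reads as stronger inhibition, judged from the few compounds that gave an IC50. Most other retested compounds had strongly negative values. Of about 69,000 compounds tested this way, about 10 (0.015%) reached 50% or more in at least one test.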
Leishmania in macrophages: 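Cell assay of Leishmania donovani living inside macrophages; the read-out is not stated. Concentration: 30 µM. The record gives no direction; compounds that gave an IC50 in retests scored well above the rest, so higher reads as stronger inhibition. About 69,000 compounds were tested under these conditions; 1.5% (about 1,000) showed 50% or more at least once.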
MtTrpRS: 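Enzyme assay of tryptophanyl-tRNA synthetase; the read-out is not stated. Target: Tryptophan-tRNA ligase, Mycobacterium tuberculosis (UniProt P9WFT3). Concentration: 10 µM. Higher most likely means stronger inhibition; the record gives no direction and few retests gave an IC50. Of about 65,000 compounds tested this way, about 64 (0.098%) reached 50% or more in at least one test.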

The filed quantity is “Percent Effect” (%).
How 0% and 100% were set is not recorded. Most values in the screen are low, and negative values occur.
The compounds are a random part of those screened.
Two or more numbers in one place are separate tests of the same structure; such repeats can differ widely.

With Cc1cccn2cc(CNCc3cccc4c3OCCCO4)nc12 the screen gave Pks13 thioesterase: -15.93%; Toxoplasma: -3.954%; CoaBC: 3.302%; ClpP1P2: 12.17%; Leishmania in macrophages: 39.9%; MtTrpRS: -2.309%. For COC(=O)c1ccc(N2CCN(C(=O)c3cnn(C)c3)C(C)C2)cc1 (stereo unspecified) the result was Pks13 thioesterase: -18.29%; CoaBC: 3.342%; ClpP1P2: 0.6386%; Leishmania in macrophages: 9.352%; MtTrpRS: -1.338%. With CN(Cc1ncc(-c2ccccc2)o1)C1CCCN(c2cccnn2)C1 (stereo unspecified) the screen gave Pks13 thioesterase: 4.933%; Toxoplasma: 7.632%; CoaBC: 8.211%; ClpP1P2: -14.61%; Leishmania in macrophages: 23.66%; MtTrpRS: 0.6595%. COCCN1C(=O)CC(c2cccnc2)C12CCN(C(=O)C1CC1)CC2 (stereo unspecified) read Pks13 thioesterase: -3.445%; CoaBC: 0.495%; ClpP1P2: -18.57%. CNC(=O)CN1CCOCC2(CCCN(Cc3cccnc3)C2)C1 (stereo unspecified) read Pks13 thioesterase: -2.158%; CoaBC: -3.106%; ClpP1P2: -13.13%; MtTrpRS: 1.313%.

For CC(C)NC(=O)c1cc2c(nc1N(C)C)CCN(S(=O)(=O)C1CC1)CC2 the result was Pks13 thioesterase: 33.7%; Toxoplasma: -9.239%; CoaBC: 0.2179%; ClpP1P2: -10.07%; Leishmania in macrophages: 28.1%; MtTrpRS: -2.434%. Result for COc1ncccc1NC(=O)N(Cc1ccco1)C1CC1 was Pks13 thioesterase: -2.666%; Toxoplasma: -9.529%; CoaBC: 5.018%; ClpP1P2: -15.47%; Leishmania in macrophages: 6.992%; MtTrpRS: -2.03%. Cc1cnccc1CN1CCN(C)C2(CCC(=O)N(CC3CC3)CC2)C1 (stereo unspecified) read Pks13 thioesterase: 25.27%; Toxoplasma: 11%; CoaBC: 2.545%; ClpP1P2: -16.91%; Leishmania in macrophages: 30.43%; MtTrpRS: -0.5387%. c1cnc(N2CC[C@@H](OCC3CC3)[C@@H]2Cc2cccnc2)nc1 read Pks13 thioesterase: -2.809%; CoaBC: 2.788%; ClpP1P2: -3.228%. CCOc1ncnc2c1CCN(C(=O)CN(C)C)CC2.O=C(O)C(F)(F)F gave Toxoplasma: 9.197%; Leishmania in macrophages: -13.75% and 4.61%.

Result for COC(=O)c1ncccc1N1CCCC1 was Pks13 thioesterase: 8.256%; Toxoplasma: -23.76%; CoaBC: -0.3774%; ClpP1P2: -2.315%; Leishmania in macrophages: 2.193%; MtTrpRS: 0.8163%. Result for Cc1noc(C)c1C(=O)NCC(c1ccsc1)N(C)C (stereo unspecified) was Pks13 thioesterase: -7.795%; Toxoplasma: -62.16%; CoaBC: 3.728%; ClpP1P2: 0.007279%; Leishmania in macrophages: 31.72%; MtTrpRS: -1.026%. Result for Cc1csc(C(=O)NCCn2nc(-n3cncn3)ccc2=O)c1 was Pks13 thioesterase: -0.4234%; Toxoplasma: 21.4%; CoaBC: 1.211%; ClpP1P2: -5.515%; Leishmania in macrophages: -20.78%; MtTrpRS: 2.973%. COC(=O)c1ccccc1NC(=O)c1c(C)cn(C)c1CC(=O)O read Pks13 thioesterase: -29.01%; Toxoplasma: 26.05%; CoaBC: 0.9223%; ClpP1P2: 5.497%; Leishmania in macrophages: -1.971%; MtTrpRS: 9.5%.

The values are deposited in ChEMBL (CHEMBL3988442, “University of Dundee, Small-Polar-MMV Screening Library” (2021)).